In patent US9403894B2, “Glucagon analogues” (Zealand Pharma A/S, priority 2010, dated 2016) one finds EC50 data, which are given here for one compound.

Amino acid sequences for entries named in this document (tags omitted). Residues count along the entry.
UniProt P47871, 26-477: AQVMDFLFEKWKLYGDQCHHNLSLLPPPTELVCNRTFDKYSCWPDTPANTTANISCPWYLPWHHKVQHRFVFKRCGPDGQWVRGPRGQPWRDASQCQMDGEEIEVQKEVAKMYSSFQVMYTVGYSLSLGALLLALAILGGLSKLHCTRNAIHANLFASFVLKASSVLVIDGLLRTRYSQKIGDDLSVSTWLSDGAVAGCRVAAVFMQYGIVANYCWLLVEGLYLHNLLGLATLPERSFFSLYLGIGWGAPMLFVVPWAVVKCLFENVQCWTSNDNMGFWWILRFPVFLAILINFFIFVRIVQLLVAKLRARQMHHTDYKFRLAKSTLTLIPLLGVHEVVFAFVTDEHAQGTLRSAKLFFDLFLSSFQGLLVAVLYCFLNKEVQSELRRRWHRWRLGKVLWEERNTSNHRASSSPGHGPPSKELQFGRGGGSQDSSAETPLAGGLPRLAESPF

A word on the EC50: it is the concentration giving half of the maximal effect.

In the assay the target is T1, human Glucagon-R (Homo sapiens, UniProt P47871).
T1 construct: expressed in transfected cells
Description: Glucagon receptor efficacy assay (cAMP) in HEK293 cells expressing human Glucagon-R. The assay is classed as cell-based. The text has this: The DNA encoding the Glucagon-R or the GLP-1-R was amplified by PCR using primers encoding terminal restriction sites for subcloning. The 5′-end primers additionally encoded a near Kozak consensus sequence to ensure efficient translation. The fidelity of the DNA encoding the Glucagon-R and the GLP-1-R was confirmed by DNA sequencing. The PCR products encoding the Glucagon-R or the GLP-1-R were subcloned into a mammalian expression vector containing a neomycin (G418) resistance marker. The mammalian expression vectors encoding the Glucagon-R or the GLP-1-R were transfected into HEK293 cells by a standard calcium phosphate transfection method. 48 hr after transfection cells were seeded for limited dilution cloning and selected with 1 mg/ml G418 in the culture medium. […] One Glucagon-R expressing clone and one GLP-1-R expressing clone were chosen for compound profiling.
On the day of analysis, growth medium was removed and the cells washed once with 200 μl Tyrode buffer. Cells were incubated in 100 μl Tyrode buffer containing increasing concentrations of test peptides, 100 μM IBMX, and 6 mM glucose for up 15 min at 37° C. The reaction was stopped by addition of 25 μl 0.5 M HCl and incubated on ice for 60 min.

As for `CCCCCCCCCCCCCCCC(=O)N[C@@H](CCC(=O)NCCCC[C@H](NC(=O)[C@H](CCC(=O)O)NC(=O)[C@H](CC(=O)O)NC(=O)[C@H](CC(C)C)NC(=O)[C@H](Cc1ccc(O)cc1)NC(=O)[C@H](CCCCN)NC(=O)[C@H](CO)NC(=O)[C@H](Cc1ccc(O)cc1)NC(=O)[C@H](CC(=O)O)NC(=O)[C@H](CO)NC(=O)[C@@H](NC(=O)[C@H](Cc1ccccc1)NC(=O)[C@@H](NC(=O)CNC(=O)[C@H](CCC(N)=O)NC(=O)[C@H](CO)NC(=O)[C@@H](N)Cc1c[nH]cn1)[C@@H](C)O)[C@@H](C)O)C(=O)N[C@@H](CCCNC(=N)N)C(=O)N[C@@H](C)C(=O)N[C@@H](CCCCN)C(=O)N[C@@H](CC(=O)O)C(=O)N[C@@H](Cc1ccccc1)C(=O)N[C@H](C(=O)N[C@@H](CCC(=O)O)C(=O)N[C@@H](Cc1c[nH]c2ccccc12)C(=O)N[C@@H](CC(C)C)C(=O)N[C@@H](CC(C)C)C(=O)N[C@@H](CO)C(=O)N[C@@H](C)C(N)=O)[C@@H](C)CC)C(=O)O` [Compound 6], the EC50 stood at 0.16 nM. That is a sub-nanomolar value.
